# Measurements reported in PubChem BioAssay AID1259308 (NCATS, 2017)
# Aim: 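Candidate targets for better recombinant protein yield in mammalian cells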 (primary screen)
# Cell system: human HEK293 embryonic kidney cells stably expressing firefly luciferase (HEK-CMV-Luc2-Hygro)
# Reagent: single siRNA against human genes, 0.8 pmol siRNA per well
# Time to read-out: 72 h
# Detection: 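Luciferase light (ONE-Glo) measured on one replicate plate set and viability (CellTiter-Glo) on the other, scaled to a negative control siRNA, with robust z-scores and luciferase per cell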
# Reading the numbers: total luciferase, z-score and total luciferase, % of control: higher = more reporter protein produced; luciferase per cell, z-score: higher = more reporter output per viable cell
# Rule for the call: 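Active when the median/MAD z-score for overall luciferase is greater than 3; a gene was taken forward for validation with new siRNAs if at least two of its three siRNAs passed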
# Meaning of the calls: active = raised luciferase; inactive = no rise
# In all, the deposit lists about 59,000 reagents; shown is a part drawn at random. Of all reagents, about 1,510 (2.6%) are marked active. 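Calls use total luciferase alone and ignore viability, so some active siRNAs may act by altering cell number.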 Entries without a mark were called inactive. The numbers tell different reagents against one gene apart. Further read-outs or replicates are left out here.
target gene,siRNA no.,"total luciferase, z-score","total luciferase, % of control","luciferase per cell, z-score"
DTWD1,1,1.14,105,1.96
DTWD1,2,-0.261,76.7,-0.207
DTWD1,3,-0.977,62.5,-0.386
HRC,1,-1.25,57,-1.44
HRC,2,-1.16,58.8,-1.01
HRC,3,-0.425,73.4,-0.0791
WHAMMP2,1,-1.98,42.4,-0.724
WHAMMP2,2,-1.2,58,-1.1
WHAMMP2,3,0.0214,82.3,-0.361
SMOX,1,-0.438,73.2,0.179
SMOX,2,0.337,88.6,0.597
SMOX,3,0.0669,83.2,-0.0237
LMTK2,1,0.993,102,0.427
LMTK2,2,0.342,88.7,0.0954
LMTK2,3,0.916,100,1.54
BIN1,1,1.38,109,1.14
BIN1,2,-1.31,55.9,-1.15
BIN1,3,-0.791,66.1,-0.18
RASA2,1,0.599,93.8,0.116
RASA2,2,1.12,104,0.697
RASA2,3,-0.946,63.1,-0.387
TRNP1,1,0.93,100,1.91
TRNP1,2,-0.33,75.3,-0.9
TRNP1,3,-1.63,49.6,0.903
ANGPTL8,1,-0.444,73,-0.407
ANGPTL8,2,0.172,85.3,0.000478
ANGPTL8,3,1.18,105,0.486
MVB12B,1,0.217,86.2,0.715
MVB12B,2,0.664,95.1,0.431
MVB12B,3,1.89,119,1.42
LARP1B,1,-0.27,76.5,-0.484
LARP1B,2,0.222,86.3,0.638
LARP1B,3,-0.686,68.2,-0.532
APOBEC3B,1,-0.654,68.9,-0.21
APOBEC3B,2,2.82,138,1.82
APOBEC3B,3,-0.0541,80.8,0.0101
BCKDK,1,1.12,104,3.42
BCKDK,2,-0.293,76.1,-0.444
BCKDK,3,-1.35,55.1,-0.00903
CRH,1,-0.38,74.3,-0.0775
CRH,2,-0.0104,81.7,-0.267
CRH,3,-0.77,66.6,-0.18
CCPG1,1,-1.22,57.7,-1.95
CCPG1,2,-2.17,38.7,-2.47
CCPG1,3,1.74,116,1.13
FOXP2,1,0.557,93,-0.0298
FOXP2,2,0.598,93.8,1.27
FOXP2,3,0.413,90.1,1.35
GIMAP2,1,-0.143,79,0.161
GIMAP2,2,0.833,98.5,0.566
GIMAP2,3,-0.128,79.3,-0.091
MS4A2,1,3.54 (active),152,2.57
MS4A2,2,0.167,85.2,-0.22
MS4A2,3,1.88,119,0.625
RBFOX1,1,-1.87,44.6,-2.37
RBFOX1,2,-0.031,81.3,0.414
RBFOX1,3,0.532,92.5,0.951

Records listed so far whose gene name starts with D or d (3):
target gene,siRNA no.,"total luciferase, z-score","total luciferase, % of control","luciferase per cell, z-score"
DTWD1,1,1.14,105,1.96
DTWD1,2,-0.261,76.7,-0.207
DTWD1,3,-0.977,62.5,-0.386
